Results published in paper PMC4840320 (Scientific Reports, 2016).
Where a chain is given by its changes, count along the chain named. In names and notes the source's numbering stands. Results are given in words; binding and its absence hold for the method and conditions named. Binding can be weak; no strength is given. Where a sequence is shown, tags or fusion partners need not be part of it. For part of these data: In cells and extracts the contact can be indirect.

Amino acid sequences for entries named in this document (tags omitted). A change or cut given only in a name is not applied to a line headed by its entry.
UniProt H2L0N8: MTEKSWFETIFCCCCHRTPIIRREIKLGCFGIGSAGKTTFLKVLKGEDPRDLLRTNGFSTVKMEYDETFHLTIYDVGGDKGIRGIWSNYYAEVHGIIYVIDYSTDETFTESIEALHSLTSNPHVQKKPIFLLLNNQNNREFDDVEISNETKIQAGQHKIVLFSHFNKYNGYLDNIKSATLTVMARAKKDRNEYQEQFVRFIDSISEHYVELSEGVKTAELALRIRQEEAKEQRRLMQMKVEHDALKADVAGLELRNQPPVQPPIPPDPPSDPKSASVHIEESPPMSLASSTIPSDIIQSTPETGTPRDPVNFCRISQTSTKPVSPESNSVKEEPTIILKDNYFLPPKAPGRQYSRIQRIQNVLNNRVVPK
UniProt Q10658: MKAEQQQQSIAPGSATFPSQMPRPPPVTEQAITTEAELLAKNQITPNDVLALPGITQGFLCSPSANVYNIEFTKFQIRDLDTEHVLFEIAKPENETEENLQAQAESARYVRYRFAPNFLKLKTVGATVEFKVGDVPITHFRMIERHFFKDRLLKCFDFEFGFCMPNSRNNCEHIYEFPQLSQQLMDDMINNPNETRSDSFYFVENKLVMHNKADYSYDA

B1: ARL-3 with a BiFC tag (Venus fragment) in C. elegans (protein, UniProt O45379 1-184)
chain: MGLIDVLKSFKSPSGREIRILLLGLDNAGKTTILKQLSSEDVQHVTPTKGFNVKTVAAMGDIRLNVWDIGGQRSIRPYWSNYYENIDTLIFVIDSNDKKRFDEMNIELGELLDEEKLRKVPVLIFANKQDLVTAASSEEITRKLNLDLLRDRTWHIQACSALKNEGINDGITWVASNLKPASKK
B2: His-tagged ARL-3 (natural protein, C. elegans, UniProt O45379 1-184, looked up)
chain: B1 chain
notes: ARL-3, small GTPase of C. elegans, wild type; the methods speak of full-length and/or truncated cDNAs, and no truncation of ARL-3 is named; also called His-ARL-3; source: E. coli BL21, purified (His resin); not shown: His, N-terminal, kept
B3: ARL-3 dominant active (DA, Q72L) variant, recombinant (natural protein, C. elegans, UniProt O45379 1-184, looked up)
chain: B1 chain with Q72L
notes: ARL-3, C. elegans, dominant active variant Q72L; also called ARL-3 DA; source: E. coli BL21, purified (His resin or glutathione sepharose)
B4: ARL-3 dominant negative (DN, T31N) variant, recombinant (natural protein, C. elegans, UniProt O45379 1-184, looked up)
chain: B1 chain with T31N
notes: ARL-3, C. elegans, dominant negative variant T31N; also called ARL-3 DN; ARL-3DN (T31N); source: E. coli BL21, purified (His resin or glutathione sepharose)

Each molecule was assayed against ARL-13 with a BiFC tag (Venus fragment) in C. elegans (C. elegans) (UniProt H2L0N8) (assay: split reporter; Venus-based BiFC in live transgenic C. elegans (N2 background; the ARL-13 pairs also in arl-3 or unc-119 mutants); signal in the InV-like compartment of cilia).

Row | binding | Molecule
1 | binds | UNC-119 with a BiFC tag (Venus fragment) in C. elegans (from UniProt Q10658 1-219)
2 | binds | B1

Each molecule was assayed against GST-fused full length ARL-13 (FL) (C. elegans) (UniProt H2L0N8) (assay: pull-down; GST pull-down: His-tagged protein incubated with GST-tagged protein immobilised on glutathione sepharose; 25 mM Tris-HCl pH 7.4, 150 mM NaCl, 0.5% Triton X-100, 1 mM DTT, 10% glycerol, 4 hours at 4 °C; six washes; anti-His immunoblot; both purified).

Row | binding | Molecule
3 | binds | His-tagged UNC-119 (from UniProt Q10658 1-219)
4 | binds | B2
5 | no binding | B3
6 | binds | B4
